# Percent effect of library compounds

Chains of the proteins cited; added tags and fusions are not shown. Residues count along the entry.
UniProt I6X8D2, whole entry: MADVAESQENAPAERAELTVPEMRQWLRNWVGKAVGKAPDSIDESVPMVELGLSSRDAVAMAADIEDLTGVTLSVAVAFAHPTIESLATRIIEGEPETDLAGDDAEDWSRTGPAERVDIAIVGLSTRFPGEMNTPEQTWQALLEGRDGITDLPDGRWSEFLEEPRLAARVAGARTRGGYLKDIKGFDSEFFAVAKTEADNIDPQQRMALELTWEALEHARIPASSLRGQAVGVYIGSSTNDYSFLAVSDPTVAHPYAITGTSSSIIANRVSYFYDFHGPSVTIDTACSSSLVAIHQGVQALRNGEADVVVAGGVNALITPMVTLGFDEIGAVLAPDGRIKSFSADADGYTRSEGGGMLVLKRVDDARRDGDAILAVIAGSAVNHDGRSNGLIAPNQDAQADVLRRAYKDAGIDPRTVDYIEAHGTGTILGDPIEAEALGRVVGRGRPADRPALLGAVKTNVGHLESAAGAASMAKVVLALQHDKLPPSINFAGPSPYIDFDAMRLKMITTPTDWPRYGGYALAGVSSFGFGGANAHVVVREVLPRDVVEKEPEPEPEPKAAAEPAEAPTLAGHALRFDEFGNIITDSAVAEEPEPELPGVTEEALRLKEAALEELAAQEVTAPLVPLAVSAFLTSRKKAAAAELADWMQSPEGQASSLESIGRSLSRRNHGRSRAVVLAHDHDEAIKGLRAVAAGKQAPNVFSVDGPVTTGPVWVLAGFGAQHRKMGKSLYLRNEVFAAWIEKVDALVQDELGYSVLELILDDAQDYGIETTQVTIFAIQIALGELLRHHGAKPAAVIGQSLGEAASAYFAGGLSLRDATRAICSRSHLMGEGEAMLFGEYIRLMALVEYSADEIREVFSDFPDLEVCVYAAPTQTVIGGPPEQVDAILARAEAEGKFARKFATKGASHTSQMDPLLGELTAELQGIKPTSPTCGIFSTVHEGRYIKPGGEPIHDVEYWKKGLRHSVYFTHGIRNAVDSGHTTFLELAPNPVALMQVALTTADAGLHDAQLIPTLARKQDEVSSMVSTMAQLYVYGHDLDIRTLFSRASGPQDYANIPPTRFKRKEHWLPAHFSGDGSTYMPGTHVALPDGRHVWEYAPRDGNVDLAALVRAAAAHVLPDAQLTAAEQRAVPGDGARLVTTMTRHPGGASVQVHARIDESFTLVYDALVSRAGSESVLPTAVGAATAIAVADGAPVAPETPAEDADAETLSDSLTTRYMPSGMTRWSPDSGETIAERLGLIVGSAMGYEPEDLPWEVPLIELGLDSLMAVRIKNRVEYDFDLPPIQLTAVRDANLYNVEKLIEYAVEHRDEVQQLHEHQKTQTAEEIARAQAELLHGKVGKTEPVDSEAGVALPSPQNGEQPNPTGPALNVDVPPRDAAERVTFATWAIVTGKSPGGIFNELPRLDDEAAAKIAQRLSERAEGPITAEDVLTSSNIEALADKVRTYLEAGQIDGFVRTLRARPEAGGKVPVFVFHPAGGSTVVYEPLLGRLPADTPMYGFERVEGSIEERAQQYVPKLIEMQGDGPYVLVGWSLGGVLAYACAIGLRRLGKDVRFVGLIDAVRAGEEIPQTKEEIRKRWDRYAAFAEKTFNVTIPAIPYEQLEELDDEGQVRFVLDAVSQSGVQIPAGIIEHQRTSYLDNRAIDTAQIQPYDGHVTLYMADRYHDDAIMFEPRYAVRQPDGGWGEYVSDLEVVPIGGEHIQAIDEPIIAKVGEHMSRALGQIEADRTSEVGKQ
UniProt Q4DA54, 1-478: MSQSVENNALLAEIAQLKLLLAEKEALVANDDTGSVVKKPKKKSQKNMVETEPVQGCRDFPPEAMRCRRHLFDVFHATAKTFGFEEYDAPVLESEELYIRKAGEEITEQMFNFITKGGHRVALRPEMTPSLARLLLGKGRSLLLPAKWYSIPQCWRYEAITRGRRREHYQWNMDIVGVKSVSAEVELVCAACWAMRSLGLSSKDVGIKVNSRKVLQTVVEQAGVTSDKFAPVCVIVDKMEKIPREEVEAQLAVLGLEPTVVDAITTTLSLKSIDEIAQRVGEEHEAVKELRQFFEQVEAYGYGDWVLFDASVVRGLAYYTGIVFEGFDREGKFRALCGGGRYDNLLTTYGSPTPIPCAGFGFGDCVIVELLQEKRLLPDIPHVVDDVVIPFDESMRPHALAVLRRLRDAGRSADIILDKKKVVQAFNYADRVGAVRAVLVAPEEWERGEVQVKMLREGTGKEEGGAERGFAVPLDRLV
UniProt P9WPC5, whole entry: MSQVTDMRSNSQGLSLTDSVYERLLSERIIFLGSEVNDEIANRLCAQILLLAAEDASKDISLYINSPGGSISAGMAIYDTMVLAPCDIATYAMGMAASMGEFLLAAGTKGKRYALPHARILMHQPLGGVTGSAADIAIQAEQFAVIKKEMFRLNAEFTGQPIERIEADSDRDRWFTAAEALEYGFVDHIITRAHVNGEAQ
UniProt P9WPC3, whole entry partner: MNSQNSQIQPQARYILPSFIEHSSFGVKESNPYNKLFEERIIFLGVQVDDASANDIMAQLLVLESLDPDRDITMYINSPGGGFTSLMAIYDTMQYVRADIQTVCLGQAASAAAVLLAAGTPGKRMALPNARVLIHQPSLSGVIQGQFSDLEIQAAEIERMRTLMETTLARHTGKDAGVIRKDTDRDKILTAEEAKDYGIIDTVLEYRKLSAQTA
UniProt A4I591, 1-473: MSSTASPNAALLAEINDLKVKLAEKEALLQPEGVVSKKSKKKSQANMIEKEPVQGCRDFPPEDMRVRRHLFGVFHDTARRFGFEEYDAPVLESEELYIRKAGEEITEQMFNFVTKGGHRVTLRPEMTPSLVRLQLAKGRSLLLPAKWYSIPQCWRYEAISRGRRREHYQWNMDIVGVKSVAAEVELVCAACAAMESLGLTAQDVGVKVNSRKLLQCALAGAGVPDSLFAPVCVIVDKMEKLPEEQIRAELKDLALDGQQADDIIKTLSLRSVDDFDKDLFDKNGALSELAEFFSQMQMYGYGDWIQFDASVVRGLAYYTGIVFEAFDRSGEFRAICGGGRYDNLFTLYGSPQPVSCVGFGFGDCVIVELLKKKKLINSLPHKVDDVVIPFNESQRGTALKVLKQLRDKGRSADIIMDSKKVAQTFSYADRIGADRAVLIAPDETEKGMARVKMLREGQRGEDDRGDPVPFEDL

Source: ChEMBL document CHEMBL3988442, “University of Dundee, Small-Polar-MMV Screening Library” (2021).

Pks13 thioesterase: 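Polyketide synthase Pks13, Mycobacterium tuberculosis (UniProt I6X8D2). Enzyme assay of the thioesterase domain of polyketide synthase 13; the read-out is not stated. Compounds at 30 µM. Higher reads as stronger inhibition (inferred from which compounds were picked for retests). Size under these conditions: about 67,000 compounds, about 300 of them at 50% or above in at least one test.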
TcHisRS: 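Enzyme assay of histidyl-tRNA synthetase; the read-out is not stated. Target: Histidine-tRNA ligase, Trypanosoma cruzi CL Brener (UniProt Q4DA54). Tested at 30 µM. The record gives no direction; compounds that gave an IC50 in retests scored well above the rest, so higher reads as stronger inhibition. Size under these conditions: about 69,000 compounds, about 31 of them at 50% or above in at least one test.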
ClpP1P2: 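Protease assay of ClpP1P2, read by the AMC dye that it sets free. Target: ClpP1P2, Mycobacterium tuberculosis (UniProt P9WPC5 and UniProt P9WPC3). Tested at 50 µM. Higher reads as stronger inhibition, judged from the few compounds that gave an IC50. Most other retested compounds had strongly negative values. About 69,000 compounds were tested under these conditions; 0.015% (about 10) showed 50% or more at least once.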
Leishmania in macrophages: 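Cell assay of Leishmania donovani living inside macrophages; the read-out is not stated. Tested at 30 µM. Direction is inferred from retests: higher values go with stronger inhibition. About 69,000 compounds were tested under these conditions; 1.5% (about 1,000) showed 50% or more at least once.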
LiHisRS: 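Histidine-tRNA ligase, Leishmania infantum (UniProt A4I591). Enzyme assay of histidyl-tRNA synthetase; the read-out is not stated. Tested at 30 µM. Direction is inferred from retests: higher values go with stronger inhibition. The assay is labelled LdHisRS but filed under L. infantum. Size under these conditions: about 69,000 compounds, about 410 of them at 50% or above in at least one test.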

Each number is a percent effect as filed. How 0% and 100% were set is not recorded. Most values in the screen are low, and negative values occur. Compounds were drawn at random from those tested, without regard to their results.

With O=C(O)c1cn2cc(C(F)(F)F)ccc2n1 the screen gave Pks13 thioesterase: -27.18%; TcHisRS: 6.25%; ClpP1P2: 2.12%; Leishmania in macrophages: 18.79%; LiHisRS: 20.83%.
With [H][C@]12CCC[C@@]1(COCC1CCOCC1)CN(C(=O)c1ccc(C)o1)C2 the screen gave Leishmania in macrophages: 8.994%.
With c1c[nH]c2nc(C3CCCNC3)nc-2c1 (centres unmarked) the screen gave Pks13 thioesterase: -6.542%; TcHisRS: -7.692%; ClpP1P2: 6.619%; Leishmania in macrophages: 19.48%; LiHisRS: 6.897%.
With Cc1nn(C)c(C)c1C1COCCN1C(=O)c1cnc(N)c(Cl)c1 (centres unmarked) the screen gave Pks13 thioesterase: -12.82%; TcHisRS: -2.29%; ClpP1P2: 22.41%; Leishmania in macrophages: 7.324%; LiHisRS: 16.44%.
With CNC(=O)c1c(C)cccc1NCc1noc(C2CC2)n1 the screen gave Pks13 thioesterase: -31.57%; TcHisRS: 3.448%; ClpP1P2: -9.093%; Leishmania in macrophages: 33.86%; LiHisRS: 16.88%.
With Cn1ncc(N2CCC(CNC3CC(C)(C)CC(C)(C)C3)C2)cc1=O (centres unmarked) the screen gave Pks13 thioesterase: -6.762%; TcHisRS: -2.062%; ClpP1P2: 11.38%; Leishmania in macrophages: -17.7%; LiHisRS: 25.71%.
With O=C(c1ccccc1)N1CC[C@H]2C[C@@H](c3nccs3)O[C@@H]2C1 the screen gave Pks13 thioesterase: -2.277%; TcHisRS: 7.317%; ClpP1P2: -3.934%; LiHisRS: 7.692%.
With Cn1nnc2c1CCN(CC1CC1)C2COCC1CC1 (centres unmarked) the screen gave Pks13 thioesterase: -11.75%; TcHisRS: 7.143%; ClpP1P2: 0.06955%; LiHisRS: 11%.
With COc1cccc2cc(CNC(=O)N3CCOC(C)(C)C3)oc12 the screen gave Pks13 thioesterase: -23.23%; TcHisRS: 6.286%; ClpP1P2: -22.67%; Leishmania in macrophages: 3.79%; LiHisRS: 13.56%.
With CC(C)c1noc(C(C)N2CCN(Cc3ccsc3)CC2)n1 (centres unmarked) the screen gave Pks13 thioesterase: -1.923%; TcHisRS: 3.03%; ClpP1P2: 9.479%; Leishmania in macrophages: 29.43%; LiHisRS: 10.61%.
With CN(Cc1ccc(Cl)s1)C(=O)c1ccccc1OCC(N)=O the screen gave Pks13 thioesterase: -20.04%; TcHisRS: -1.026%; ClpP1P2: 0.3273%; Leishmania in macrophages: 0.8719%; LiHisRS: 0%.
With O=C(CCc1ccccn1)NCC(O)c1ccc(Cl)cc1Cl (centres unmarked) the screen gave Pks13 thioesterase: -17.36%; TcHisRS: 6.173%; ClpP1P2: -6.919%; Leishmania in macrophages: 22.94%; LiHisRS: 17.2%.
With O=C(O)C(F)(F)F.[H][C@@]12CCN(C3CCCC3)C[C@]1([H])[C@H](C(=O)NC1CCC1)CCO2 the screen gave Leishmania in macrophages: 25.28%.
With Cc1noc(C)c1CN(C)C(=O)NC(C)c1cccs1 (centres unmarked) the screen gave Pks13 thioesterase: -21.88%; TcHisRS: -3.867%; ClpP1P2: 8.952%; Leishmania in macrophages: -15.54%; LiHisRS: 23.94%.
With CC1(C)CC(NC(=O)c2cnn(-c3ccccc3F)c2N)CC(C)(C)N1 the screen gave Pks13 thioesterase: 3.206%; TcHisRS: 10.23%; ClpP1P2: 17.33%; Leishmania in macrophages: -0.03065%; LiHisRS: 13.86%.
With CNC(=O)CN1CCCC12CCN(C(=O)c1ccoc1)CC2 the screen gave TcHisRS: -1.942%; ClpP1P2: -3.391%; LiHisRS: 7.692%.
With CCc1ncncc1C(=O)NCCN1CCC(C)CC1 the screen gave Pks13 thioesterase: -9.261%; TcHisRS: 2.439%; ClpP1P2: -3.76%; Leishmania in macrophages: 18.33%; LiHisRS: 8.654%.

The first 2 entries again:

{"smiles": "O=C(O)c1cn2cc(C(F)(F)F)ccc2n1", "Pks13 thioesterase": -27.18, "TcHisRS": 6.25, "ClpP1P2": 2.12, "Leishmania in macrophages": 18.79, "LiHisRS": 20.83}
{"smiles": "[H][C@]12CCC[C@@]1(COCC1CCOCC1)CN(C(=O)c1ccc(C)o1)C2", "Leishmania in macrophages": 8.994}